# Reference: PubChem BioAssay AID1671190 (National Center for Advancing Translational Sciences (NCATS), 2021)
# Sequences of proteins named here, by UniProt entry; tags and fusion partners are left off. A change or cut given only in a name is not applied to a line headed by its entry.
# UniProt P18054: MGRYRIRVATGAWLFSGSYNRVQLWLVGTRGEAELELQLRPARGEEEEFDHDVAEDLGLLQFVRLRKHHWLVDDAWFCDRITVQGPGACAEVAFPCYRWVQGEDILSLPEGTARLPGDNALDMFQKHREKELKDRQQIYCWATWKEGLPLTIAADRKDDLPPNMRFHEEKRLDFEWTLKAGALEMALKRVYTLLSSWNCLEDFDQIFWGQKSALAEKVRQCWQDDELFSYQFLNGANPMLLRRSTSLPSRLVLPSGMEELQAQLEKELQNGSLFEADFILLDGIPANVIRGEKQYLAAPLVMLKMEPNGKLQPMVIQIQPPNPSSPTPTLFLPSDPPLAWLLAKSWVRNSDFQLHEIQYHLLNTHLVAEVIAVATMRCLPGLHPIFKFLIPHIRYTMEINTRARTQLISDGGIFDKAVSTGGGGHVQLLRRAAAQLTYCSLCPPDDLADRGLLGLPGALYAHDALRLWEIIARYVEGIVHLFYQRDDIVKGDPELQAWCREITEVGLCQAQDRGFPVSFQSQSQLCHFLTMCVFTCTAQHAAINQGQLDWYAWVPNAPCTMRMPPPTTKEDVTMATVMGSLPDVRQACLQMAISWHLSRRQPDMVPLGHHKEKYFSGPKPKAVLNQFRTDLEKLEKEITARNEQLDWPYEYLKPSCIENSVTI
# The whole screen tested about 580,000 compounds, of which about 6,100 (1.1%) were called active. Inconclusive results, whose numbers are uncertain, are shown with a selection of clear calls. Calls follow the shape of the dose curve; as a rule, active = well fitted inhibition curve with a large enough effect; inconclusive = small, poorly fitted or top-dose-only effect, or another doubt; inactive = no such curve, though single readings can be large or run the other way. A potency beside an inconclusive call is a rough fit, not a confirmed value.
# Target: Polyunsaturated fatty acid lipoxygenase ALOX12 (Homo sapiens) (UniProt P18054)
# Test: Primary qHTS assay for inhibitors of human arachidonate 12S-lipoxygenase (ALOX12): Round 2
# Conditions: purified 12hLO, xylenol orange hydroperoxide absorbance; activity change, negative = inhibition: at 108 µM (top of the series) unless noted
# Method in brief: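 Hydroperoxide product was detected by ferrous iron/xylenol orange as the 573 to 405 nm absorbance ratio. Arachidonic acid at 40 uM (final) was turned over for 30 min at room temperature by 150 nM human 12hLO, pH 7.0 Hepes buffer, after 15 min compound preincubation.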
# % is scaled to controls: 0 for no effect and ±100 for the full control effect; potency is read from the fitted curve at half-maximal effect.
SMILES,Potency,"activity change, negative = inhibition"
CCOc1ccc(NC(=O)CN(C)C(=O)CCCOc2ccc(Cl)c(C)c2)cc1OCC,"inconclusive: 44.7 µM [inhibitor, partial curve, poor fit]",–
O=C1C(Cl)=C(NCCN2CCOCC2)C(=O)c2ccccc21,"inconclusive: 100 µM [inhibitor, single point]",–
COc1ccc(CCN2C(=O)CC(Cc3ccc(C)cc3)C2=O)cc1OC (stereo not given),–,inactive: -11.9%
CC1CN(CCOc2ccccc2C(C)C)CC(C)O1 (stereo not given),"inconclusive: 4.47 µM [inhibitor, full curve, poor fit]",–
COCCOC(=O)C1=C(C)NC(C)=C(C(=O)OC(C)C)[C@@H]1c1cccc([N+](=O)[O-])c1,"inconclusive: 89.1 µM [inhibitor, single point]",–
COc1ccc(NC(=O)CN2CCCCC2)cc1,–,inactive: -12%
C=CCOc1ccc(/C(O)=C2\C(=O)C(=O)N(CCCOC)C2c2ccc(O)c(OC)c2)cc1 (stereo not given),"inconclusive: 2.51 µM [inhibitor, full curve, poor fit]",–
CC1C(=O)NN=C1C(=O)N/N=C\C(Br)=C\c1ccccc1 (stereo not given),–,inactive: -27.8%
Cc1ccc(CNC(=O)[C@H](C)NC(=O)[C@@H]2Cc3ccccc3CN2)cc1,"inconclusive: 100 µM [inhibitor, single point]",–
COC(=O)C(C)N(C(=O)c1cccc2ccccc12)c1c(C)cccc1C (stereo not given),"inconclusive: 112 µM [inhibitor, partial curve, poor fit]",–
NC1=NC(c2ccc(O)cc2)n2c(nc3ccccc32)N1 (stereo not given),"inconclusive: 44.7 µM [inhibitor, partial curve, poor fit]",–
O=C(C1CN(C(=O)c2ccc(Cl)c(Cl)c2)c2ccccc2O1)N1CCOCC1 (stereo not given),"inconclusive: 79.4 µM [inhibitor, single point]",–
Cc1cccc(CN2C(=O)[C@H]3Cc4c([nH]c5ccccc45)C(C)(C)N3C2=O)c1,"inconclusive: 89.1 µM [inhibitor, partial curve, poor fit]",–
C/C=C\C=C/C(=O)Nc1cccc(C2=NOC3(C2)C[C@@H](C(N)=O)N(C(=O)COc2ccc(Cl)cc2)C3)c1 (stereo not given in full),"inconclusive: 44.7 µM [inhibitor, partial curve, poor fit]",–
Cc1cc2cc(CNC(=O)c3ccc(Br)o3)ccc2n1C,"inconclusive: 20 µM [inhibitor, full curve, poor fit]",–
CC(O)(c1ccc(Cl)cc1)C(c1ccccc1)c1ccccn1 (stereo not given),"inconclusive: 35.5 µM [inhibitor, single point]",–
Cc1cnc(C(=O)N2CCCC(c3nnc(Cn4cccn4)n3C)C2)cn1 (stereo not given),"inconclusive: 35.5 µM [inhibitor, single point]",–
Cc1nc(/C=C/C(=O)N(CCC#N)Cc2cccnc2)cs1,"inconclusive: 35.5 µM [inhibitor, full curve, poor fit]",–
Cc1cc(C)cc(NC(=O)CSc2oc(-c3ccco3)nc2S(=O)(=O)c2ccc(Cl)cc2)c1,"inconclusive: 44.7 µM [inhibitor, partial curve]",–
COC(=O)c1sc2ccccc2c1NC(=O)c1ccc(S(=O)(=O)N2CCCCC2)cc1,–,inactive: -18.6%
Fc1cccc(CSC2=NCCS2)c1,–,inactive: 5.63%
CCc1nnc(NS(=O)(=O)c2ccc(N/C=C/C(=O)c3ccc(C)cc3)cc2)s1,"inconclusive: 31.6 µM [inhibitor, partial curve]",–

SMILES,Potency,"activity change, negative = inhibition"
CC1(C)CC(=O)C2=C(C1)OC(N)=C(C#N)C2CCc1ccccc1 (stereo not given),"inconclusive: 44.7 µM [inhibitor, partial curve, poor fit]",–
COc1cc(Cc2ccc(N)c(OC)c2)ccc1N,–,inactive: -13.7%
COc1cccc(OCc2nc3ncc(Br)cc3[nH]2)c1,–,inactive: -6.89%
COC(=O)c1ccc(C(=O)OC)c(NC(=O)CSc2ccc3c(c2)OCCO3)c1,"inconclusive: 25.1 µM [inhibitor, single point]",–
COc1ccccc1CCC(=O)N1CCN(c2cc(-c3cccs3)[nH]n2)CC1,–,inactive: 30%
COC(=O)CC(NC(=O)c1ccc2c(c1)OCCCO2)c1ccccc1 (stereo not given),"inconclusive: 2.82 µM [inhibitor, full curve, poor fit]",–
COc1ccc(CCNC(=O)Nc2ccccc2[N+](=O)[O-])cc1,–,inactive: -16.4%
COc1cc(OC(F)(F)F)ccc1C(=O)N1CCC(c2nnc3n2C(C(=O)O)CC3)CC1 (stereo not given),"inconclusive: 8.91 µM [inhibitor, full curve, poor fit]",–
COCCNCCCCOc1ccc(Br)cc1C,"inconclusive: 0.282 µM [inhibitor, full curve, poor fit]",–
NC(=O)c1cc2ccc(O)cc2oc1=Nc1ccccc1,–,inactive: 0%
COc1ccc(C(=O)NNc2ncnc3c2cnn3-c2cccc(Cl)c2)cc1OC,"inconclusive: 112 µM [inhibitor, partial curve, poor fit]",–
CC(C)CCN1CCC(N2CCN(C(=O)c3ccc(Br)o3)CC2)C1=O (stereo not given),"inconclusive: 3.16 µM [inhibitor, partial curve]",–
O=C(C1=C(O)C(=O)N(CCN2CCOCC2)C1c1cccc(Br)c1)c1cc2ccccc2o1 (stereo not given),"inconclusive: 56.2 µM [inhibitor, partial curve, poor fit]",–
Cc1ccc(S(=O)(=O)N2CCn3c(n[nH]c3=O)C2)c(C)c1,–,inactive: 22.3%
Cc1ccc(C)c(Cn2c(=O)n(C)c(=O)c3sccc32)c1,"inconclusive: 14.1 µM [inhibitor, single point]",–
O=C(CCc1nc2ccccc2[nH]1)NCc1ccc2c(c1)OCO2,–,inactive: 15.5%
O=c1c(-c2ccco2)nc2ccccc2n1C(CCc1ccccc1)c1nc2ccccc2[nH]1 (stereo not given),"inconclusive: 12.6 µM [inhibitor, full curve, poor fit]",–
Cc1ccc(NC(=O)C2CCN(S(=O)(=O)c3c(C)noc3/C=C/c3cccs3)CC2)cc1F,–,inactive: -21.3%
CCOC(=O)N1CCN(C(=O)CN(C2CCCCC2)S(=O)(=O)c2ccc(Cl)cc2)CC1,"inconclusive: 35.5 µM [inhibitor, single point]",–
CCn1ncc2c(C(=O)Nc3ccc(OC(F)F)cc3)cc(-c3cccs3)nc21,"inconclusive: 141 µM [inhibitor, single point]",–
O=C(CN1C2=NCCN2c2ccccc21)c1ccc(Br)cc1,inactive,–
Cn1c2c(c(=O)n(C)c1=O)C(c1cccc(F)c1)C(C#N)=C(N)O2 (stereo not given),"inconclusive: 22.4 µM [inhibitor, partial curve, poor fit]",–

# Compounds from the list above that contain a cyano group (3):
SMILES,Potency,"activity change, negative = inhibition"
Cc1nc(/C=C/C(=O)N(CCC#N)Cc2cccnc2)cs1,"inconclusive: 35.5 µM [inhibitor, full curve, poor fit]",–
CC1(C)CC(=O)C2=C(C1)OC(N)=C(C#N)C2CCc1ccccc1 (stereo not given),"inconclusive: 44.7 µM [inhibitor, partial curve, poor fit]",–
Cn1c2c(c(=O)n(C)c1=O)C(c1cccc(F)c1)C(C#N)=C(N)O2 (stereo not given),"inconclusive: 22.4 µM [inhibitor, partial curve, poor fit]",–

# Further structures follow.

SMILES,Potency,"activity change, negative = inhibition"
O=C(Cc1ccccc1)NCc1ccc2c(c1)OCO2,–,inactive: -10.3%
CNC(=S)NCCCc1ccccc1,"inconclusive: 50.1 µM [inhibitor, partial curve, poor fit]",–
CCOC(=O)C1=C(CN2CCN(C(=O)c3ccco3)CC2)NC(=O)NC1c1ccc(C)cc1 (stereo not given),"inconclusive: 39.8 µM [inhibitor, partial curve, poor fit]",–
COC(=O)c1ccccc1NC(=O)c1cnn2c(C(F)F)cc(C3CC3)nc12,–,inactive: 0%
O=C(c1ccc(F)cc1)N1CCn2c(nn(-c3cccc(Cl)c3)c2=O)C1,–,inactive: 2.61% [at 6.33 µM]
CCn1c(SCC(=O)N2CCc3ccccc3C2)nc2c1c(=O)n(C)c(=O)n2C,–,inactive: -0.268%
CCC1CCCCN1CCCNC(=O)c1ccc2c(=O)n(Cc3ccc(OC)cc3)c(=O)[nH]c2c1 (stereo not given),"inconclusive: 20 µM [inhibitor, partial curve, poor fit]",–
Oc1ccc(-c2sc(Nc3ccccc3)n[n+]2-c2ccc(F)cc2)cc1,"inconclusive: 44.7 µM [inhibitor, partial curve, poor fit]",–
O=S(=O)(c1ccc(F)cc1)N1CCN(CC(O)COCc2cccs2)CC1 (stereo not given),"inconclusive: 1.58 µM [inhibitor, full curve, poor fit]",–
O=C(/C=C/c1ccco1)N1CCN(S(=O)(=O)c2cccc([N+](=O)[O-])c2)CC1,"inconclusive: 44.7 µM [inhibitor, partial curve, poor fit]",–
CC(C)c1ccc(NC(=O)C2Cc3c(-c4ccco4)ccnc3O2)cc1 (stereo not given),–,inactive: -7.72%
CC(=O)N1CCCN(c2ncnc3c2CN(C2CCNCC2)C(=O)CN3C)CC1,"inconclusive: 4.47 µM [inhibitor, full curve, poor fit]",–
CN1CCN(c2nc3c(c(=O)[nH]c(=O)n3C)n2CCSc2nnnn2-c2ccccc2)CC1,–,inactive: 0%
CC(C)Oc1ccc(C(=O)NCC(c2ccc(N(C)C)cc2)N2CCCC2)cc1 (stereo not given),"inconclusive: 31.6 µM [inhibitor, partial curve, poor fit]",–
CC(=O)N1CCC(C(=O)N[C@H]2CCN3C(=O)N(c4ccc(Cl)cc4)C(=O)[C@@H]3C2)CC1,"inconclusive: 50.1 µM [inhibitor, full curve, poor fit]",–
CC(C)N1CCC(N2CCN(C3CCCCC3)CC2CCO)CC1 (stereo not given),"inconclusive: 39.8 µM [inhibitor, partial curve, poor fit]",–
CC(NC(=O)c1ccco1)c1nc2ccccc2n1Cc1ccc(Br)cc1 (stereo not given),–,inactive: -4.8%
O=C1CSC(=S)N1N=Cc1ccccc1O,active: 6.31 µM,–
COc1cccc(C(C(=O)NC2CCCC2)N(C(=O)c2csnn2)C2CC2)c1 (stereo not given),"inconclusive: 5.62 µM [inhibitor, full curve]",–
Cc1ccc(NS(=O)(=O)c2cc(-c3cnc(C4CC4)o3)ccc2C)cc1Cl,"inconclusive: 89.1 µM [inhibitor, partial curve, poor fit]",–
Cc1ccc(NC(=O)CSc2n[nH]c(=O)c3cc(-c4ccco4)nn23)c(Br)c1,"inconclusive: 31.6 µM [inhibitor, partial curve, poor fit]",–

# A run of entries of the results above, as a working copy:
SMILES,Potency,"activity change, negative = inhibition"
COCCNCCCCOc1ccc(Br)cc1C,"inconclusive: 0.282 µM [inhibitor, full curve, poor fit]",–
NC(=O)c1cc2ccc(O)cc2oc1=Nc1ccccc1,–,inactive: 0%
